Data as given in PubChem BioAssay AID493246 (Drosophila RNAi Screening Center, 2011)
In all, the deposit lists about 21,000 reagents; below is a random part of those with a known target gene and a result. Over the whole deposit, 429 (2%) were called active. 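Values are raw and not normalised between plates; calls rest on per-plate z-scores that were not deposited.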 The record does not give: the amount of reagent, the time to read-out.

Assay: 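Identify essential fly genes by loss of cell viability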 (primary screen)
Cells: Drosophila Kc and S2R+ cells
Knock-down reagent: long dsRNA against Drosophila genes
Measured: 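Raw, unnormalised count of remaining cells in each well; per-plate z-scores of cell number underlie the calls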
Reading the numbers: Kc cell number and S2R+ cell number: higher = more cells remaining
Rule for the call: 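Active when the per-plate z-score of cell number is 3 or more in the direction of fewer cells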

| target | amplicon | Kc cell number, rep 1 | Kc cell number, rep 2 | S2R+ cell number, rep 1 | S2R+ cell number, rep 2 | outcome |
| --- | --- | --- | --- | --- | --- | --- |
| D12 | DRSC03311 | 1.40e6 | 1.47e6 | 6.43e5 | 6.64e5 | inactive |
| corolla | DRSC20102 | 1.51e6 | 1.58e6 | 1.09e6 | 1.18e6 | inactive |
| Hyccin | DRSC06983 | 1.37e6 | 1.44e6 | 1.18e6 | 1.21e6 | inactive |
| Socs36E (Suppressor of cytokine signaling at 36E) | DRSC02455 | 1.43e6 | 1.50e6 | 9.45e5 | 1.09e6 | inactive |
| CG6153 | DRSC02935 | 1.34e6 | 1.44e6 | 1.24e6 | 1.24e6 | inactive |
| PTPMT1 (Protein tyrosine phosphatase, mitochondrial 1) | DRSC14235 | 1.47e6 | 1.49e6 | 9.41e5 | 1.10e6 | inactive |
| shams | DRSC16590 | 1.43e6 | 1.37e6 | 9.23e5 | 1.03e6 | inactive |
| CG6324 | DRSC19985 | 1.43e6 | 1.45e6 | 1.04e6 | 1.16e6 | inactive |
| cysu (Curly Su) | DRSC15902 | 1.17e6 | 1.21e6 | 1.08e6 | 1.21e6 | inactive |
| Tcs3 (Threonyl-carbamoyl synthesis 3) | DRSC10461 | 1.31e6 | 1.50e6 | 1.31e6 | 1.41e6 | inactive |
| Obp83a (Odorant-binding protein 83a) | DRSC12362 | 1.58e6 | 1.71e6 | 1.24e6 | 1.46e6 | inactive |
| CG12419 (retired record) | DRSC14513 | 1.50e6 | 1.52e6 | 1.36e6 | 1.44e6 | inactive |
| CG2871 | DRSC18230 | 1.41e6 | 1.38e6 | 1.02e6 | 1.20e6 | inactive |
| CG17575 | DRSC06682 | 1.64e6 | 1.71e6 | 1.36e6 | 1.55e6 | inactive |
| Ir51a (Ionotropic receptor 51a) | DRSC06256 | 1.82e6 | 2.02e6 | 1.46e6 | 1.64e6 | inactive |
| drd (drop dead) | DRSC19343 | 1.53e6 | 1.54e6 | 1.20e6 | 1.24e6 | inactive |
| Bub1 (Bub1 kinase) | DRSC02357 | 1.18e6 | 1.30e6 | 3.97e5 | 6.65e5 | inactive |
| CG5770 | DRSC06954 | 1.43e6 | 1.46e6 | 1.15e6 | 1.18e6 | inactive |
| grn (grain) | DRSC12666 | 5.79e5 | 5.30e5 | 4.45e5 | 6.02e5 | active |
| grn (grain) | DRSC16961 | 1.54e6 | 1.80e6 | 1.34e6 | 1.41e6 | inactive |
| chp (chaoptin) | DRSC16925 | 4.67e5 | – | 7.69e5 | – | inactive |
| CG14671 | DRSC12257 | 1.62e6 | 1.83e6 | 1.23e6 | 1.27e6 | inactive |
| gny (garnysstan) | DRSC02810 | 1.31e6 | 1.36e6 | 1.19e6 | 1.31e6 | inactive |
| clumsy | DRSC03111 | 1.69e6 | 1.76e6 | 1.28e6 | 3.97e5 | inactive |
| tyf (twenty-four) | DRSC18382 | 1.48e6 | 1.44e6 | 1.04e6 | 1.14e6 | inactive |
| CG11997 | DRSC14464 | 1.72e6 | 1.97e6 | 1.28e6 | 1.32e6 | inactive |
| bnk (bottleneck) | DRSC16912 | 1.50e6 | 1.60e6 | 1.08e6 | 1.19e6 | inactive |
| LManII (Lysosomal alpha-mannosidase II) | DRSC01986 | 1.28e6 | 1.37e6 | 1.21e6 | 1.35e6 | inactive |
| CG13438 | DRSC06398 | 1.42e6 | 1.34e6 | 9.90e5 | 1.29e6 | inactive |
| Vps51 (Vacuolar protein sorting 51) | DRSC06519 | 1.43e6 | 1.46e6 | 1.25e6 | 1.30e6 | inactive |
| Rexo5 (RNA exonuclease 5) | DRSC10981 | 1.38e6 | 1.34e6 | 1.16e6 | 1.13e6 | inactive |
| Nup50 (Nucleoporin 50kD) | DRSC06827 | 1.29e6 | 1.39e6 | 1.09e6 | 1.11e6 | inactive |
| fzy (fizzy) | DRSC03534 | 1.38e6 | 1.19e6 | 5.37e5 | 6.10e5 | active |
| mof (males absent on the first) | DRSC18795 | 1.52e6 | 1.59e6 | 1.07e6 | 1.15e6 | inactive |
| Ide (Insulin degrading metalloproteinase) | DRSC11867 | 1.55e6 | 1.61e6 | 1.22e6 | 1.31e6 | inactive |
| CG30350 | DRSC07690 | 1.49e6 | 1.52e6 | 1.24e6 | 1.36e6 | inactive |
| CG17154 | DRSC10253 | 1.39e6 | 1.26e6 | 1.29e6 | 1.37e6 | inactive |
| Try29F (Trypsin 29F) | DRSC03466 | 1.58e6 | 1.78e6 | 1.36e6 | 1.54e6 | inactive |
| CG9674 | DRSC11088 | 1.51e6 | 1.55e6 | 1.21e6 | 1.23e6 | inactive |
| CG9674 | DRSC11089 | 1.37e6 | 1.47e6 | 1.26e6 | 1.34e6 | inactive |

Part of the list above, showing only “Kc cell number, rep 1”:
Tcs3 (Threonyl-carbamoyl synthesis 3) [DRSC10461]: 1.31e6
Obp83a (Odorant-binding protein 83a) [DRSC12362]: 1.58e6
CG12419 (retired record) [DRSC14513]: 1.50e6
CG2871 [DRSC18230]: 1.41e6
CG17575 [DRSC06682]: 1.64e6
